Experimental data: PubChem BioAssay AID1224830 (NIAID, 2016)

Screen: 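Genes whose knock-down alters the TNF-alpha reporter response to LPS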 (primary screen)
Cells: human THP-1 monocytic leukaemia cells, TNF dual-luciferase reporter clone, PMA-differentiated to macrophage-like cells
Reagents: siRNA pool against human genes, 50 nM
Duration: LPS for 4 h, given about 3 days after siRNA transfection
Challenge: bacterial LPS (TLR4 ligand), 10 ng/ml
Detection: 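TNF firefly reporter luminescence divided by renilla, normalised to the plate median, then turned into a robust z-score for each replicate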
Scale: TNF reporter robust z-score: higher = stronger TNF reporter response to LPS
Hit rule: 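Each well counts as active if its z-score is over 2.8 or under -1.5; controls are left without a call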
In all, the deposit lists about 18,000 reagents; shown is an unselected part. In the full data, about 2,900 (16%) got an active call. 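Calls are made per well; low scores hint the gene aids the LPS response, high scores that it dampens it.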 A number with no mark means an inactive call. Repeated entries: four replicate wells of each siRNA pool.

target | TNF reporter robust z-score
KIF3B | 0.55
KIF3B | 0.88
KIF3B | 0.62
KIF3B | 2.46
LGALS12 | -0.59
LGALS12 | -0.14
LGALS12 | 0.06
LGALS12 | -0.2
CASP3 | 1.21
CASP3 | -0.46
CASP3 | -0.25
CASP3 | 0.45
KHK | 1.41
KHK | 2.24
KHK | -0.21
KHK | -0.11
PLA2G7 | -0.12
PLA2G7 | 0.03
PLA2G7 | -0.2
CRIPT | -0.18
CRIPT | 0.22
CRIPT | 0.48
CRIPT | -0.14
ICAM1 | -1.04
ICAM1 | -1.35
ICAM1 | -1.46
ICAM1 | -1.47
DTX3L | 0.42
DTX3L | 2.98 (active)
DTX3L | -0.31
DTX3L | 1.33
SLC25A44 | -1.49
SLC25A44 | -1.54 (active)
SLC25A44 | -1.63 (active)
SLC25A44 | -1.29
EPOR | 0.83
EPOR | 0.39
EPOR | 0.72
EPOR | 1.06
SNX11 | 2.81 (active)
SNX11 | 1.51
SNX11 | -0.75
SNX11 | -0.61
TOX | 0.5
TOX | 0.16
TOX | -0.44
TOX | 0.47
PCF11 | -2.09 (active)
PCF11 | -1.95 (active)
PCF11 | -1.97 (active)
PCF11 | -2.01 (active)
KIF1A | -0.15
KIF1A | -0.89
KIF1A | -0.92
KIF1A | -1.23
WNT10A | -1.04
WNT10A | -1.07
WNT10A | -0.57
WNT10A | -0.53
KCNJ2 | -0.53
KCNJ2 | -0.86
KCNJ2 | -0.2
KCNJ2 | 0.3
B4GALNT1 | -0.68
B4GALNT1 | 0.09
B4GALNT1 | -0.39
B4GALNT1 | 0.28
KLHL41 | 3.82 (active)
KLHL41 | 4 (active)
KLHL41 | 3.42 (active)
KLHL41 | 0.89
IRF2BP2 | -1.35
IRF2BP2 | -0.28
IRF2BP2 | -1.3
IRF2BP2 | -0.86
CLCA1 | -0.12
CLCA1 | 0.18
CLCA1 | -0.79
LTF | -0.58
LTF | 0.66
LTF | -0.05
LTF | -0.06
SUMO1 | 0.04
SUMO1 | -0.33
SUMO1 | -0.43
SUMO1 | -0.03
DIAPH3 | -0.16
DIAPH3 | -1.36
DIAPH3 | 0.63
DIAPH3 | 0.43
STAG2 | -0.47
STAG2 | -0.07
STAG2 | -0.99
STAG2 | -0.64
ZNF233 | 0.45
ZNF233 | 0.68
ZNF233 | 0.89
ZNF233 | 2.36
CBR4 | -1.01
CBR4 | -0.91
CBR4 | -1.04
CBR4 | -0.78
MOCS2 | 0.37
MOCS2 | -0.64
MOCS2 | 0.23
MOCS2 | 0.85
C12orf71 | -0.89
C12orf71 | -1.36
C12orf71 | -0.35
C12orf71 | -0.72
